Test results reported in patent US20220142934A1, “COMBINATION THERAPEUTICS AND METHODS FOR THE TREATMENT OF NEURODEGENERATIVE AND OTHER DISEASES” (Aphios Corporation, priority 2020, published 2022).
At least one structure is not confirmed: it was looked up by name or label, or the drawing left a doubt.

Columns and labels:
ADAM10 = ADAM10 (alpha-secretase) expression in SH-SY5Y cells; assay type: cell-based; details: each agent alone or in combination
Text: Therefore, Bryostatin-1 may increase a-secretase processing through 2 independent mechanisms: (i) activation of PKCs which stimulate secretase; and (ii) increased expression of a-secretase.

[1] = tested on: SH-SY5Y neuroblastoma cells; assay: sAPPα formation/release in SH-SY5Y cells (6E10 western blot, densitometry); assay type: cell-based; details: retinoic acid alone; for sAPPα formation: 2 μM, 3 h, SH-SY5Y cells, vs control
Description: Cells were treated with RA, Bryostatin-1 (10^−9M)+RA, Bryostatin-1 (10^−10M) RA+Bryostatin-1 (10^−10M) for 3 h. Representative western blots show sAPPα recovered from culture medium.

With CC1=C(/C=C/C(C)=C/C=C/C(C)=C/C(=O)O)C(C)(C)CCC1 [Retinoic acid, retinoic acid] the “expression of ADAM10 (the major form of alpha-secretase)” value (ADAM10) was “significantly increase”, the sAPPα formation [1] was “increased” and the sAPPα formation ([1]; listed as RA) was “significantly increased”. For the same molecule, the “generation of sAPPα” value ([1]; concentration not given, SH-SY5Y cells (FIG. 3)) was “increased”.
